PubChem BioAssay AID504793 | Drosophila RNAi Screening Center – 2011
In all, the deposit lists about 23,000 reagents; below is a random part of those with a known target gene and a result. Over the whole deposit, 62 (0.27%) were called active. 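Calls come from follow-up tests whose scores are not deposited, so confirmed genes may have low counts here; counts are not normalised per plate.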 Raw values are not corrected between plates. The numbers tell different reagents against one gene apart. A plus sign joins genes that one reagent is predicted to hit. Reagent sequences are not shown.

Screen: 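Knock-downs allowing continued mitosis even though DNA is damaged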 (primary screen)
Cells: Drosophila S2R+ cells
Reagents: long dsRNA against Drosophila genes, about 0.25 µg dsRNA per well
Duration: 4 days of dsRNA, then 4 hours of drug before read-out
Conditions: doxorubicin 0.5 µM for 4 hours to cause double-strand breaks, in cells also given a low, harmless dose of dsRNA against nbs to sensitise the assay
Read-out: 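Per-well count of mitotic cells stained for phospho-histone H3 after doxorubicin exposure, used as mitotic index; counts are raw and not normalised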
Reading the numbers: mitotic cells: higher = more cells in mitosis, weaker G2 arrest
Active means: 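Genes are called active only when high mitotic counts were reproduced with independent dsRNAs and mitosis was checked for delay without damage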
Meaning of the calls: active = confirmed in follow-up tests; inactive = not confirmed

CG12926 (GeneID 35996) #1
- mitotic cells, replicate 1: 13
- Outcome: inactive

CG12926 (GeneID 35996) #2
- mitotic cells, replicate 1: 6
- Outcome: inactive

CG11635 + spaw
- mitotic cells, replicate 1: 4
- Outcome: inactive

slp2 (GeneID 33608) #1
- mitotic cells, replicate 1: 3
- Outcome: inactive

slp2 (GeneID 33608) #2
- mitotic cells, replicate 1: 5
- Outcome: inactive

Glg1 (GeneID 40382) #1
- mitotic cells, replicate 1: 3
- Outcome: inactive

Glg1 (GeneID 40382) #2
- mitotic cells, replicate 1: 5
- Outcome: inactive

Glg1 (GeneID 40382) #3
- mitotic cells, replicate 1: 5
- Outcome: inactive

CG32554 (GeneID 32767) #1
- mitotic cells, replicate 1: 11
- Outcome: inactive

CG32554 (GeneID 32767) #2
- mitotic cells, replicate 1: 8
- Outcome: inactive

Hsp60C (GeneID 33796) #1
- mitotic cells, replicate 1: 6
- Outcome: inactive

Hsp60C (GeneID 33796) #2
- mitotic cells, replicate 1: 7
- Outcome: inactive

Cip4 (GeneID 38534) #1
- mitotic cells, replicate 1: 1
- Outcome: inactive

Cip4 (GeneID 38534) #2
- mitotic cells, replicate 1: 8
- Outcome: inactive

Galphaf (GeneID 39861)
- mitotic cells, replicate 1: 5
- Outcome: inactive

A run of entries from the list above, as a working copy:
Hsp60C (GeneID 33796) #2
- mitotic cells, replicate 1: 7
- Outcome: inactive

Cip4 (GeneID 38534) #1
- mitotic cells, replicate 1: 1
- Outcome: inactive

Cip4 (GeneID 38534) #2
- mitotic cells, replicate 1: 8
- Outcome: inactive

Additional entries follow.
CG13033 (GeneID 39839) #1
- mitotic cells, replicate 1: 4
- Outcome: inactive

CG13033 (GeneID 39839) #2
- mitotic cells, replicate 1: 11
- Outcome: inactive

svp (GeneID 41491) #1
- mitotic cells, replicate 1: 34
- Outcome: inactive

svp (GeneID 41491) #2
- mitotic cells, replicate 1: 5
- Outcome: inactive

svp (GeneID 41491) #3
- mitotic cells, replicate 1: 7
- Outcome: inactive

Mst33A (GeneID 34578) #1
- mitotic cells, replicate 1: 6
- Outcome: inactive

Mst33A (GeneID 34578) #2
- mitotic cells, replicate 1: 3
- Outcome: inactive

boca (GeneID 48986)
- mitotic cells, replicate 1: 5
- Outcome: inactive

CG34148 + P5CDh2
- mitotic cells, replicate 1: 58
- Outcome: inactive

Nhe3 (GeneID 33939)
- mitotic cells, replicate 1: 6
- Outcome: inactive

Npc2g (GeneID 43648)
- mitotic cells, replicate 1: 9
- Outcome: inactive

Lamtor2 + CG30120 #1
- mitotic cells, replicate 1: 5
- Outcome: inactive

Lamtor2 + CG30120 #2
- mitotic cells, replicate 1: 8
- Outcome: inactive

fiz (GeneID 32420)
- mitotic cells, replicate 1: 6
- Outcome: inactive

CG10311 (GeneID 41984)
- mitotic cells, replicate 1: 5
- Outcome: inactive

rk (GeneID 34819)
- mitotic cells, replicate 1: 10
- Outcome: inactive

CG30154 (GeneID 246487) #1
- mitotic cells, replicate 1: 9
- Outcome: inactive

CG30154 (GeneID 246487) #2
- mitotic cells, replicate 1: 1
- Outcome: inactive

dpn (GeneID 35800) #1
- mitotic cells, replicate 1: 7
- Outcome: inactive

dpn (GeneID 35800) #2
- mitotic cells, replicate 1: 6
- Outcome: inactive
